Results on 1 substance are retold here after doi:10.1101/2025.07.08.663624.

Protein sequences, listed by entry. Tags and fused reporters are not part of them. Lines headed by an entry give the natural chain unless they say otherwise; changes in a name come on top.
UniProt G0S5M5: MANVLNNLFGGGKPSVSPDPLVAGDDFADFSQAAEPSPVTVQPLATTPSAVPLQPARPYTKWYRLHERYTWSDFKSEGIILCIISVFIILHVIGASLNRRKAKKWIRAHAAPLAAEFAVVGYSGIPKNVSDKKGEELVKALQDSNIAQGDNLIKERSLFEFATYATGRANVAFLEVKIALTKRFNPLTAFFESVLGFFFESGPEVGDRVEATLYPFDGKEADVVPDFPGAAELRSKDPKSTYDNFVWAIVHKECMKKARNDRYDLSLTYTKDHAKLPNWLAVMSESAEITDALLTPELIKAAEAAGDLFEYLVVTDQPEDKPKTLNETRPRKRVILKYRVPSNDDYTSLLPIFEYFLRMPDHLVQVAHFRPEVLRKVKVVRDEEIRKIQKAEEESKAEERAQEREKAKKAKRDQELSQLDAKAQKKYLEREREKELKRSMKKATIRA

These are yes or no findings as the source states them, for the method shown. Binding calls can cover weak binding; strength is not graded here. For some assays here: In cells and extracts the contact can be indirect.

Assay [1] concerns the target Chaetomium thermophilum CCDC47 with a FLAG tag (Chaetomium thermophilum) (UniProt G0S5M5). As to the kind of experiment: co-IP.
For assay [2] the target is unchanged. As to the kind of experiment: cryo-EM structure.

On to “Chaetomium thermophilum SND3 with a C-terminal TwinStrep tag (from UniProt G0RYQ7)”, for which the binding entry in assay [1] and in assay [2] was “binds” throughout.
